Most values lie at the floor of the assay. Slopes are relative: functional sequences can read slightly below zero.
Test system: Saccharomyces cerevisiae PS128 hsf1 delta, HSF1(1-493) fusion
Test: growth estimate (transactivation domain function in HSF1 fusion, heat-shock survival) (a.u. (slope of normalised read count over time)); higher = stronger growth at 37°C, i.e. more transactivation activity
Conditions: library: random library
Method: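 Random 60-nt DNA library encoding peptides of up to 20 aa, fused to the C-terminus of yeast HSF1 residues 1-493 (C-terminal TAD deleted) and expressed from the native HSF1 promoter on a CEN plasmid in hsf1-deleted S. cerevisiae PS128. Cells were selected at 37°C on -trp 5-FOA plates for 0, 2, 4, 6 and 8 days and amplicons were sequenced. Growth estimate is the slope of a robust linear fit of total-sum-normalised read counts (normalised to the first time point) over time, using at least 2 replicates. Sequences are classed functional (TAD activity) above a threshold of -0.13, set from stop-codon control sequences.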

Substance	growth estimate
VHRPYVARLDIHK	< -0.25
RLFLIIRSE	-0.25
GGLVKLTPSIFVSSAALRSG	< -0.25
CQHATCGVVTARDGLSPSAA	< -0.25
SFFWGSQQSSSGHFLQAVDG	< -0.25
RSPSRWI	< -0.25
YRVNAGLPGTSNSVKNHVGT	< -0.25
PGPRELSRGRQ	< -0.25
LEADR	< -0.25
PKEYKVLVCLASLFTWGPVP	< -0.25
GWALSPGAEACAGKDRISRA	< -0.25
LRVEDRDNARCVHSCGFHAG	< -0.25
YRTIAL	< -0.25
GYFRALAKYWYCPDRFADST	< -0.25
LNWIL	< -0.25
NKPLNLLRRLLLPSRAWHQG	< -0.25
CTPGVVVRERISAAS	< -0.25
CSLRCPISHNVNQHREVSIK	< -0.25
GKGWFGSFRRA	< -0.25
GPFIIRAAPGFFATISSAMS	< -0.25
RSGY	< -0.25
KPPQVLPHSSQAESLVSYDS	-0.0664
FVECLTWRDPGLNPSPCRCD	< -0.25
RAGAS	< -0.25

Substance	growth estimate
TRVG	< -0.25
TEGVLVTTSAIMHIVATEPV	-0.246
GAAGGGLYYSANGRIIRAPW	< -0.25
SSHGRNT	< -0.25
ASYGNDSVKGVTGWHGFLGR	< -0.25
YTIVKASIHRGV	< -0.25
VGK	< -0.25
QDRTSEEQHRMKTITRRLRA	< -0.25
ERFLGKAKQHLTSFSSIPLR	< -0.25
ESTLK	< -0.25
GKPQEFRYSTAHRHWG	< -0.25
TPHYH	< -0.25
SAVQCIQATGNVRKTACHTP	-0.246
VATVLKYEC	< -0.25
CKGLQSRVCYFGDCAVCMDP	< -0.25
GRKVITGVDFGGGSSIR	< -0.25
SIAEDTMDMWAGWYLPRYPA	-0.0713
GVHQRRAAPTSRTGRYAYAP	< -0.25
RLSQALESL	-0.246
FYQLMTDSTRTPQTPWSSV	< -0.25
RGVIIVWHV	< -0.25
NNKLVPVIGLVSGTTTGVLR	< -0.25
KGEDCPHENGSRLTN	< -0.25
WGGSLVTSLTSFVHLGSSAY	< -0.25

Substance	growth estimate
SVRVALLRLSGRDILRRAEN	< -0.25
FRRLCQVFG	< -0.25
SRRHGIAWRITLAHSL	< -0.25
RRF	< -0.25
NRTYSHASVHISFIWLYITV	< -0.25
TRGVADWG	< -0.25
SPTVIHEDITF	< -0.25
GVCFDS	< -0.25
IGIQTPCPESAAPLWSHPC	< -0.25
VRRPLGYVARNG	< -0.25
AMLFEFAGVGYLEAQIGMAP	< -0.25
TVTRIAF	< -0.25
RHLATKKITFVQLPPAHEVQ	< -0.25
ALYLSNTQVAPPIRTWTALV	< -0.25
PDWISGCTPKFRVRWGPELR	< -0.25
SRQLYSCESAGDTSVSVWVL	< -0.25
PLPDTLWVKGVVQRPGPGGD	< -0.25
NGQYDLCWGVERLRGEALIA	< -0.25
KFGIAEPLPRLEERSVSLSF	< -0.25
TYHGWFAGYSRCER	< -0.25
MFRFGR	< -0.25
GAVGALQSNL	< -0.25
PLLVLNTS	< -0.25
RTDILSVWLVGRETRRLHGS	< -0.25

Exported as a markdown table: part of the list above

| Substance | growth estimate |
| --- | --- |
| PLPDTLWVKGVVQRPGPGGD | < -0.25 |
| NGQYDLCWGVERLRGEALIA | < -0.25 |
| KFGIAEPLPRLEERSVSLSF | < -0.25 |

Continuation.

Substance	growth estimate
RPN	< -0.25
ACPPTCRIPESRGLGPRVTP	< -0.25
RCADAYSSESQQRSHANGRG	< -0.25
DRVFVNCQTAFDQVTEHEYC	< -0.25
SSQCKGEPDSWGVWCVSKCT	< -0.25
RMNTAGNSVMILSVRGQLCI	< -0.25
GSVLWGAFLLARRSAYKSKR	< -0.25
MTLMNFYELPARG	< -0.25
AYDV	< -0.25
LLDNTVRSGGLPKVAGFSVL	< -0.25
GRAPRYLTCRKCSIHGHYCY	< -0.25
SSVFPAG	< -0.25
SRESEETLTLGVLELMNTQD	-0.195
APVLVILAKYCGWVRGFGSG	< -0.25
SYWTIVLRQFVGTLPQQLLA	< -0.25
GHFWHGCKAGPDSKQTGKFA	< -0.25
GVPCFDAFSAARRYAVSK	< -0.25
SDGEVPHPNWVLATGS	< -0.25
GTYLYIGGQAQLLIRGPQPA	< -0.25
APMLPHGRNIVVCGSWLGRA	< -0.25
YAIIIRSYHVPTRWLQ	< -0.25
RTLYIGAMIALGETGI	< -0.25

Source: the supplement of paper PMC5949888
